Source: patent US6228373A, “Peptides with immunomodulatory effects” (priority 1995, dated 2001)
Some of these results come from one statement about several compounds together. Part of at least one peptide drawing is inferred or uncertain, most often the ends. Positions of bridges follow the written chain, without caps; N, C: chain ends. Residues, ends and D or L forms follow the SMILES beside them. Chains are numbered I, II in the order given. No end group written: not given here.

System: Balb/c mice sensitized with OXA
Assay: Delayed type hypersensitivity (DTH) test, oral feeding
Type: in vivo
Conditions: oral once daily Day 0 to Day 6; 0.0003-3.0 μmol/kg, in at least one of the dosages tested; ear thickness 24 or 48 hours after OXA challenge

Compound | immunomodulatory response in the DTH Test (change in ear thickness compared to control)
CSCC[C@H](NC(=O)[C@H](CCC(N)=O)NC(=O)[C@@H]1CSSC[C@H](NC(=O)[C@H](CC(C)C)NC(=O)[C@@H](N)CCCCN)C(=O)N1)C(=O)O [Peptide 31] (H-KLCCQM-OH; disulfide 3-4) | give rise to an immunomodulatory
C[C@H](N)C(=O)N1CCC[C@H]1C(=O)N[C@H]1CSSC[C@@H](C(=O)N[C@@H](CCC(=O)O)C(=O)N[C@@H](CO)C(=O)O)NC1=O [Peptide 40] (H-APCCES-OH; disulfide 3-4) | give rise to an immunomodulatory
KECCYV (cysteine pairing not given here) [Peptide 19] | give rise to an immunomodulatory
Val-Cys-Gly-Cys-Arg (VCGCR; printed: Val-Cys-Gly-Cys-Arg) [Peptide 15] | give rise to an immunomodulatory
RCSGCCN (cysteine pairing not given here) [Peptide 33] | give rise to an immunomodulatory
PDCCIP (cysteine pairing not given here) [Peptide 22] | give rise to an immunomodulatory
CC(C)[C@H](N)C(=O)N[C@H]1CSSC[C@H](NC(=O)[C@@H](N)C(C)C)C(=O)NCC(=O)N[C@H](C(=O)N[C@@H](CCCNC(=N)N)C(=O)O)CSSC[C@@H](C(=O)N[C@@H](CCCNC(=N)N)C(=O)O)NC(=O)CNC1=O [Peptide 38] (I: H-VCGCR-OH / II: H-VCGCR-OH; disulfide I:2-II:2, I:4-II:4) | give rise to an immunomodulatory
CC(C)[C@H](NC(=O)[C@H](Cc1ccc(O)cc1)NC(=O)[C@@H]1CSSC[C@H](NC(=O)[C@H](CCC(=O)O)NC(=O)[C@@H](N)CCCCN)C(=O)N1)C(=O)O [Peptide 23] (H-KECCYV-OH; disulfide 3-4) | give rise to an immunomodulatory
NCC(=O)N1CCC[C@H]1C(=O)N[C@@H](CS)C(=O)N[C@@H](CS)C(=O)N1CCC[C@H]1C(=O)NCC(=O)O [Peptide 1, Gly-Pro-Cys-Cys-Pro-Gly] (H-GPCCPG-OH) | give rise to an immunomodulatory
KPCCER (cysteine pairing not given here) [Peptide 17] | give rise to an immunomodulatory
CC[C@H](C)[C@H](NC(=O)[C@H](CC(=O)O)NC(=O)[C@@H]1CSSC[C@H](NC(=O)[C@H](CC(C)C)NC(=O)[C@@H](N)CCCCN)C(=O)N1)C(=O)O [Peptide 21] (H-KLCCDI-OH; disulfide 3-4) | give rise to an immunomodulatory
CC[C@H](C)[C@H](NC(=O)[C@@H](N)C(C)C)C(=O)N[C@H]1CSSC[C@@H](C(=O)N[C@@H](CC(C)C)C(=O)N[C@H](C(=O)O)[C@@H](C)O)NC1=O [Peptide 8] (H-VICCLT-OH; disulfide 3-4) | give rise to an immunomodulatory
CC(C)[C@H](N)C(=O)N[C@H]1CSSC[C@@H](C(=O)N[C@@H](CCCNC(=N)N)C(=O)O)NC(=O)CNC(=O)[C@@H](NC(=O)[C@@H](N)C(C)C)CSSC[C@@H](C(=O)N[C@@H](CCCNC(=N)N)C(=O)O)NC(=O)CNC1=O [Peptide 37] (I: H-VCGCR-OH / II: H-VCGCR-OH; disulfide I:2-II:4, I:4-II:2) | give rise to an immunomodulatory
CC[C@H](C)[C@H](NC(=O)[C@@H]1CSSC[C@H](NC(=O)[C@@H](NC(=O)[C@@H]2CCCN2)C(C)C)C(=O)N1)C(=O)NCC(=O)O [Peptide 12] (H-PVCCIG-OH; disulfide 3-4) | give rise to an immunomodulatory
C[C@H](NC(=O)[C@@H]1CCCN1)C(=O)N[C@H]1CSSC[C@@H](C(=O)NCC(=O)N2CCC[C@H]2C(=O)O)NC1=O [Peptide 41] (H-PACCGP-OH; disulfide 3-4) | give rise to an immunomodulatory
PGCCGP (cysteine pairing not given here) [Peptide 3] | give rise to an immunomodulatory
CC(C)C[C@H](NC(=O)[C@H](CO)NC(=O)[C@@H]1CSSC[C@H](NC(=O)[C@H](CCC(N)=O)NC(=O)[C@@H](N)CO)C(=O)N1)C(=O)O [Peptide 16] (H-SQCCSL-OH; disulfide 3-4) | give rise to an immunomodulatory
CC(C)C[C@H](NC(=O)[C@@H](N)CC(C)C)C(=O)N[C@@H](Cc1ccccc1)C(=O)NCC(=O)N1CCC[C@H]1C(=O)N[C@H]1CSSC[C@@H](C(N)=O)NC1=O [Peptide 6] (H-LLFGPCC-NH2; disulfide 6-7) | give rise to an immunomodulatory

Compound | immunomodulatory response in the DTH Test (change in ear thickness compared to control)
O=C(O)CNC(=O)[C@@H]1CCCN1C(=O)[C@@H]1CSSC[C@H](NC(=O)CNC(=O)[C@@H]2CCCN2)C(=O)N1 [Peptide 39] (H-PGCCPG-OH; disulfide 3-4) | give rise to an immunomodulatory
O=C(CNC(=O)[C@@H]1CCCN1)N[C@H]1CSSC[C@@H](C(=O)NCC(=O)N2CCC[C@H]2C(=O)O)NC1=O [Peptide 4] (H-PGCCGP-OH; disulfide 3-4) | give rise to an immunomodulatory
Phe-Cys-Ile-Cys-Lys (FCICK; printed: Phe-Cys-Ile-Cys-Lys) [Peptide 29] | give rise to an immunomodulatory
LACCVV (cysteine pairing not given here) [Peptide 14] | give rise to an immunomodulatory
N[C@@H](CCC(=O)O)C(=O)N[C@@H](CCC(=O)O)C(=O)N[C@H]1CSSC[C@@H](C(=O)N[C@@H](Cc2ccccc2)C(=O)N[C@@H](Cc2ccc(O)cc2)C(=O)O)NC1=O [Peptide 10] (H-EECCFY-OH; disulfide 3-4) | give rise to an immunomodulatory
Ac-APCCVP (cysteine pairing not given here) [Peptide 32] | give rise to an immunomodulatory
CC[C@H](C)[C@@H]1NC(=O)[C@@H](NC(=O)[C@@H](N)CC(=O)O)CSSC[C@@H](C(=O)N[C@@H](CCC(N)=O)C(=O)O)NC1=O [Peptide 30] (H-DCICQ-OH; disulfide 2-4) | give rise to an immunomodulatory
CC[C@H](C)[C@@H]1NC(=O)[C@@H](NC(=O)[C@@H]2CCCN2C(=O)CN)CSSC[C@H](NC(=O)[C@@H]2CCCN2C(=O)CN)C(=O)N[C@@H]([C@@H](C)CC)C(=O)N[C@H](C(=O)N2CCC[C@H]2C(=O)NCC(=O)O)CSSC[C@@H](C(=O)N2CCC[C@H]2C(=O)NCC(=O)O)NC1=O [Peptide 35] (I: H-GPCICPG-OH / II: H-GPCICPG-OH; disulfide I:3-II:3, I:5-II:5) | give rise to an immunomodulatory
C[C@H](NC(=O)[C@H](Cc1ccccc1)NC(=O)[C@@H]1CSSC[C@H](NC(=O)[C@@H]2CCCN2C(=O)[C@@H](N)[C@@H](C)O)C(=O)N1)C(=O)O [Peptide 9] (H-TPCCFA-OH; disulfide 3-4) | give rise to an immunomodulatory
CC(C)[C@H](NC(=O)[C@H](CS)NC(=O)[C@H](CS)NC(=O)[C@@H]1CCCN1C(=O)[C@H](C)N)C(=O)N1CCC[C@H]1C(=O)O [Peptide 7, Ala-Pro-Cys-Cys-Val-Pro] (H-APCCVP-OH) | give rise to an immunomodulatory
Ala-Cys-Lys-Cys-Gln (ACKCQ; printed: Ala-Cys-Lys-Cys-Gln) [Peptide 34] | give rise to an immunomodulatory
CC(C)C[C@H](N)C(=O)N[C@H]1CSSC[C@@H](C(=O)N[C@H](C(=O)O)C(C)C)NC(=O)[C@H](C)NC1=O [Peptide 27] (H-LCACV-OH; disulfide 2-4) | give rise to an immunomodulatory
N[C@@H](Cc1c[nH]c2ccccc12)C(=O)N1CCC[C@H]1C(=O)N[C@H]1CSSC[C@@H](C(=O)N2CCC[C@H]2C(=O)N[C@@H](Cc2c[nH]c3ccccc23)C(=O)O)NC1=O [Peptide 5] (H-WPCCPW-OH; disulfide 3-4) | give rise to an immunomodulatory
CC[C@H](C)[C@H](NC(=O)[C@@H](N)CO)C(=O)N[C@H]1CSSC[C@@H](C(=O)N[C@H](C(=O)N[C@@H](CCCCN)C(=O)O)[C@@H](C)O)NC1=O [Peptide 20] (H-SICCTK-OH; disulfide 3-4) | give rise to an immunomodulatory
CSCC[C@H](NC(=O)[C@H](CCC(N)=O)NC(=O)[C@H](CS)NC(=O)[C@H](CS)NC(=O)[C@H](CC(C)C)NC(=O)[C@@H](N)CCCCN)C(=O)O [Peptide 28, Lys-Leu-Cys-Cys-Gln-Met] (H-KLCCQM-OH) | give rise to an immunomodulatory
O=C(CNC(=O)[C@@H]1CCCN1)N[C@H]1CSSC[C@H](NC(=O)CNC(=O)[C@@H]2CCCN2)C(=O)N[C@H](C(=O)NCC(=O)N2CCC[C@H]2C(=O)O)CSSC[C@@H](C(=O)NCC(=O)N2CCC[C@H]2C(=O)O)NC1=O [Peptide 36] (I: H-PGCCGP-OH / II: H-PGCCGP-OH; disulfide I:3-II:3, I:4-II:4) | give rise to an immunomodulatory
Ile-Cys-Thr-Cys-Glu (ICTCE; printed: Ile-Cys-Thr-Cys-Glu) [Peptide 26] | give rise to an immunomodulatory
CC[C@H](C)[C@H](N)C(=O)N[C@H]1CSSC[C@@H](C(=O)N[C@@H](CCC(=O)O)C(=O)O)NC(=O)[C@H]([C@@H](C)O)NC1=O [Peptide 25] (H-ICTCE-OH; disulfide 2-4) | give rise to an immunomodulatory
